Measurements as given in patent publication US7368570B2, “Organometallic complexes as singlet oxygen sensitizers” (University of Southern California, priority 2003, dated 2008).
Where two headings read alike, the source gives them in different places. At least one compound was matched to its structure with a doubt left.

Tests used:
[1] = singlet oxygen luminescence quenching rate constants; assay type: physicochemical; settings: benzene
Method: TPP in benzene or chloroform with OD 0.5-0.7 was used as blank/solvent solution to produce singlet oxygen. The intensity of ^1O2 luminescence signals was measured at 532 nm excitation in air-saturated solutions with a liquid nitrogen cooled germanium photodiode at 1268 nm. 0.02-0.5 mL quencher stock solution of Ir(III) complexes in […] was added to the blank solution. The decay trace of singlet oxygen was then re-measured, and the additions repeated 6-10 times. Singlet oxygen quenching rate constants by the Ir(III) complexes were obtained from the slopes of Stern Volmer plots (See FIG. 7).

[2] = reference value, cited from earlier work
[3] = standard sensitizer, reference (6); cited from earlier work

Row | SMILES | kq(^1O2) singlet oxygen quenching rate [1] | ΦΔ of reference for quantum yield measurements ([2]; 355 nm) | ΦΔ of reference for quantum yield measurements ([2]; 532 nm) | kq singlet oxygen quenching rate [3]
1 | NCC(=O)[O][Ir]([c]1ccc2ccccc2c1-c1nc2ccccc2s1)[c]1ccc2ccccc2c1-c1nc2ccccc2s1 [BSN-G, iridium(III) bis(2-(1-naphthyl)benzothiazolato-N,C^2)glycinate] | 2.1 = 0.5 10^6 M^−1 s^−1 | – | – | –
2 | C1=Cc2nc1c(-c1ccccc1)c1nc(c(-c3ccccc3)c3ccc([nH]3)c(-c3ccccc3)c3ccc([nH]3)c2-c2ccccc2)C=C1 [TPP, tetraphenylporphyrin] | – | 0.62 | 0.62 | (6±2)×10^7 M^−1s^−1
